{
  "source": "patent US8623909B2",
  "about": "“Prophylactic/therapeutic agents for lifestyle-related diseases” (priority 2008, dated 2014)",
  "system": "B6 mice on high-fat diet",
  "test": "High-fat diet B6 mice, 16 weeks (body weight, serum glucose, serum insulin, food intake, visceral fat)",
  "format": "in vivo, mouse",
  "conditions": "10 mg/kg s.c. every other day",
  "protocol": "9-week-old B6 mice were divided into a control group, high-fat diet group and high-fat diet+compound of formula (Ia) group of 10 animals each, and housed and observed for 16 weeks. During this period, the compound of formula (Ia) was subcutaneously injected at 10 mg/kg every other day, body weights were measured once a week, and food intake was measured once every 4 weeks.\nAfter 16 weeks, the body weights, bone mineral densities, fat distributions and exercise levels of the mice were measured, followed by collecting blood samples and finally sacrificing the animals and collecting their organs. The average value of body weight, serum glucose concentration and serum insulin concentration of each group after 16 weeks are shown in the following Table 17.",
  "data": [
    {"smiles": "CC(=O)[C@H]1CCC2C3CCc4c(C)cccc4C3CC[C@@]21C", "note": "(stereo partly shown) [Compound of formula (Ia)]", "values": [
      {"measurement": "Food intake", "setting": "Week 4", "result": 2.11, "unit": "g/day"},
      {"measurement": "Food intake", "setting": "Week 8", "result": 2.01, "unit": "g/day"},
      {"measurement": "Food intake", "setting": "Week 12", "result": 2.22, "unit": "g/day"},
      {"measurement": "Food intake", "setting": "Week 16", "result": 2.34, "unit": "g/day"}
    ]}
  ]
}
